Assay results: paper PMC9600610
These are yes or no findings as the source states them, for the method shown. Binding seen in cells or lysates may run through a third protein. Some entries that bind do so weakly or less than the wild type.

By UniProt entry, the sequences of proteins in these tests, tags left out.
UniProt P02584: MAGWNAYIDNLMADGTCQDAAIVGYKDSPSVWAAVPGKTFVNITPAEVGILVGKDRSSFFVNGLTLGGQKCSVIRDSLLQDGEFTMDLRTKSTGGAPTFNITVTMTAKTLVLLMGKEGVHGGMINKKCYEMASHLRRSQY
UniProt Q2KJ93: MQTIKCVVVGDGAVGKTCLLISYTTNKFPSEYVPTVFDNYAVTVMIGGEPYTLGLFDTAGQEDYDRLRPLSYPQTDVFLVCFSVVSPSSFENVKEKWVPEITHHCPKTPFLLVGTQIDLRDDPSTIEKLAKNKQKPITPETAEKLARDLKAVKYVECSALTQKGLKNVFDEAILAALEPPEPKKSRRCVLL

Biological target: Profilin1 (bovine (endogenous in bovine myoblasts)) (UniProt P02584)
Experiment: co-IP; PFN1 antibody or IgG on protein A/G magnetic beads, incubated with lysate of DM2 bovine myoblasts at 4 °C overnight; Cdc42 detected by Western blot

In the case of Cdc42 (from UniProt Q2KJ93 1-191), the binding is reported as “binds”.
